Assay [1] deals with GAL4 DNA binding domain-ERα fusion protein (GAL4 DNA-BD/ER) (UniProt P04386). In words: yeast two-hybrid (FIG. 6B).
Assay [2] has the same target. In words: yeast two-hybrid in AH109 yeast, growth selection with E2, tamoxifen or vehicle (FIG. 6B).

Chains of the proteins cited; added tags and fusions are not shown. Lines headed by an entry give the natural chain unless they say otherwise; changes in a name come on top.
UniProt P04386: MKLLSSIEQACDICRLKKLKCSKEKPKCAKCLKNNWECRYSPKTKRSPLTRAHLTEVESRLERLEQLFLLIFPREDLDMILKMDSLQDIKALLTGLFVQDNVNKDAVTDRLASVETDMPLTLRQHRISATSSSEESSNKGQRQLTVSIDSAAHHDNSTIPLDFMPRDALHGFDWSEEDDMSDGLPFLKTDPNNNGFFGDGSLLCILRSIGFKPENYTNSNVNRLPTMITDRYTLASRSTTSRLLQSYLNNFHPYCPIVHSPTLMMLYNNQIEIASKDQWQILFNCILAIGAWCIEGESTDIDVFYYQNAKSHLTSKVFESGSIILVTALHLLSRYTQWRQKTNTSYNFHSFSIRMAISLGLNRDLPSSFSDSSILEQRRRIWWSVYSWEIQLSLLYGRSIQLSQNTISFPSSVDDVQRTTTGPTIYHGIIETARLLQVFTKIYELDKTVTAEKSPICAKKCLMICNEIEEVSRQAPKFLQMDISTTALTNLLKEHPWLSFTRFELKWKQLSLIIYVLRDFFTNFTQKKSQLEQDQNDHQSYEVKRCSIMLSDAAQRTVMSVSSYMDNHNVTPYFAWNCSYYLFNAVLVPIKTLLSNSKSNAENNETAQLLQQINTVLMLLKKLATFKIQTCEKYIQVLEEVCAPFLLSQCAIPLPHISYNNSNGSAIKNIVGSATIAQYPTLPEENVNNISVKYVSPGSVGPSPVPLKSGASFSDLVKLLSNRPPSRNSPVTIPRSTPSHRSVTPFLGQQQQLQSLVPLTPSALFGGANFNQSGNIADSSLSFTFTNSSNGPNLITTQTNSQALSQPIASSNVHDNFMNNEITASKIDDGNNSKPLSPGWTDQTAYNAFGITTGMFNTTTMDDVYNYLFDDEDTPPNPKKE
UniProt P04792: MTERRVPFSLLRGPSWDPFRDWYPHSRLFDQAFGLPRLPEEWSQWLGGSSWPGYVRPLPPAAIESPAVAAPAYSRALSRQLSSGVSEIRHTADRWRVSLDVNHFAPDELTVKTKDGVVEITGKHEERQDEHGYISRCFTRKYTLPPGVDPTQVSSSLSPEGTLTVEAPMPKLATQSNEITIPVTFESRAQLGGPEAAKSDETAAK

These are yes or no findings as the source states them, for the method shown. Some entries that bind do so weakly or less than the wild type.

Take “GAL4 DNA activation domain-hsp27 fusion (GAL4 DNA-AD/hsp27) (from UniProt P04792 1-205)”: the binding result in assay [1] and in assay [2] was “binds” throughout.

For the origin of these results see patent US20050009137A1 (CEDARS SINAI MEDICAL CENTER, published 2005).
